Measured values published in PMC8007706, “Structural and functional analysis of LIM domain-dependent recruitment of paxillin to αvβ3 integrin-positive focal adhesions” (Communications Biology, 2021).
These are yes or no findings as the source states them, for the method shown. Some results given as binding are weak or reduced against the parent protein; the word gives no strength.

Amino acid sequences for entries named in this document (tags omitted). A change or cut given only in a name is not applied to a line headed by its entry. Chains listed by the source or under a name are the forms on record and can include a tag or linker. Residues count along the entry.
UniProt P26039, residues 1-405: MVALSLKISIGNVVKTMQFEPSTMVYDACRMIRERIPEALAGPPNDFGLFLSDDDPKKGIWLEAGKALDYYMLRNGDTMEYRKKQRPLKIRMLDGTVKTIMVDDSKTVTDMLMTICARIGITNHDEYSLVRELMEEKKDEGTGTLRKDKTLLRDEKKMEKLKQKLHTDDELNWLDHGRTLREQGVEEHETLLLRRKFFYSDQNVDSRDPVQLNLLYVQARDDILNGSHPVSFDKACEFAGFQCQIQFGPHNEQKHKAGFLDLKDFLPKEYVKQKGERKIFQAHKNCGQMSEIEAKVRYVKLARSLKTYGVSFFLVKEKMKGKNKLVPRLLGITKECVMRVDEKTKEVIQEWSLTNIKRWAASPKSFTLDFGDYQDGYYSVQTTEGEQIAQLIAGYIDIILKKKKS
GST-fused paxillin LIM domains, LIM 1234 (P49023, residues 351-591): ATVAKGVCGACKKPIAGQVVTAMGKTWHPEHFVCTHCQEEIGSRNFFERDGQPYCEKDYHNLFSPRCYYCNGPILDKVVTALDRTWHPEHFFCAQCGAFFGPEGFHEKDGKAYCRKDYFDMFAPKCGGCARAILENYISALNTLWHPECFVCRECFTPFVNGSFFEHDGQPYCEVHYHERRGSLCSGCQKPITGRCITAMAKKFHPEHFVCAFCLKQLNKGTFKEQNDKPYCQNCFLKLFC
GST-fused paxillin LIM domains, LIM 1334 (P49023-2, form named): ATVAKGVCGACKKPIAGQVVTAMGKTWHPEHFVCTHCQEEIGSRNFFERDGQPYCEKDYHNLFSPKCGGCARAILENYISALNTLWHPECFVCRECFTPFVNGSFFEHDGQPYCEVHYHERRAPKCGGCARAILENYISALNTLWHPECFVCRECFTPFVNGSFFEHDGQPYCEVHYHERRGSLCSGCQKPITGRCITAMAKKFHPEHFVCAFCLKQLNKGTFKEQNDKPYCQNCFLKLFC
GST-fused paxillin LIM domains, LIM 1224 (P49023-2, form named): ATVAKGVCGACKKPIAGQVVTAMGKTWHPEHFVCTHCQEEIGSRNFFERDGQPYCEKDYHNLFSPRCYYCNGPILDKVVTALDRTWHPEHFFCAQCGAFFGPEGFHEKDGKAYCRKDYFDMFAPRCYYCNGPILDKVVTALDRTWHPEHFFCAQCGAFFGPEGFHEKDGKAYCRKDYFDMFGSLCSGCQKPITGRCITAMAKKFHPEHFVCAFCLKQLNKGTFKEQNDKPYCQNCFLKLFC

Tests used:
[1] = biological target: His-tagged talin-head domain (talin 1–405 aa), immobilised on the Ni-NTA sensor (UniProt P26039); test: condition: measured at 20, 80, 320, 1250, and 5000 nM; response at 320 nM reported; BLI; Octet RED384; His-tagged talin head (50 µg/ml) immobilised on Ni-NTA sensor and covalently coupled (EDC/NHS, ethanolamine quench); GST-tagged paxillin LIM constructs in solution at 20, 80, 320, 1250 and 5000 nM; 50 mM NaPO3, 150 mM NaCl, pH 7.2; 27 °C, 1000 rpm; free GST response subtracted; response at 320 nM reported; both purified
[2] = biological target: His-tagged talin-head domain (talin 1–405 aa), immobilised on the Ni-NTA sensor (UniProt P26039); test: BLI; Octet RED384; His-tagged talin head (50 µg/ml) immobilised on Ni-NTA sensor and covalently coupled (EDC/NHS, ethanolamine quench); GST-tagged paxillin LIM constructs in solution at 20, 80, 320, 1250 and 5000 nM; 50 mM NaPO3, 150 mM NaCl, pH 7.2; 27 °C, 1000 rpm; free GST response subtracted; response at 320 nM reported; both purified

| Substance | binding [1] | binding [2] |
| --- | --- | --- |
| GST-fused paxillin LIM domains, LIM 1334 (from UniProt P49023-2 317-381; P49023-2 441-497; P49023-2 439-557) (domain or fragment) | no binding | – |
| GST-fused paxillin LIM domains, LIM 1234 (from UniProt P49023-2 317-557) (domain or fragment) | – | binds |
| GST-fused paxillin LIM domains, LIM 1224 (from UniProt P49023-2 317-440; P49023-2 382-438; P49023-2 498-557) (domain or fragment) | – | binds |
